Laboratory results: PMC7293730
These are yes or no findings as the source states them, for the method shown. Binding seen in cells or lysates may run through a third protein. Here binding means that the protein was enriched with, or labelled near, the bait; the list need not be complete. Sequences can lack the tags named with a protein.

Chains of the proteins cited; added tags and fusions are not shown.
UniProt P68104: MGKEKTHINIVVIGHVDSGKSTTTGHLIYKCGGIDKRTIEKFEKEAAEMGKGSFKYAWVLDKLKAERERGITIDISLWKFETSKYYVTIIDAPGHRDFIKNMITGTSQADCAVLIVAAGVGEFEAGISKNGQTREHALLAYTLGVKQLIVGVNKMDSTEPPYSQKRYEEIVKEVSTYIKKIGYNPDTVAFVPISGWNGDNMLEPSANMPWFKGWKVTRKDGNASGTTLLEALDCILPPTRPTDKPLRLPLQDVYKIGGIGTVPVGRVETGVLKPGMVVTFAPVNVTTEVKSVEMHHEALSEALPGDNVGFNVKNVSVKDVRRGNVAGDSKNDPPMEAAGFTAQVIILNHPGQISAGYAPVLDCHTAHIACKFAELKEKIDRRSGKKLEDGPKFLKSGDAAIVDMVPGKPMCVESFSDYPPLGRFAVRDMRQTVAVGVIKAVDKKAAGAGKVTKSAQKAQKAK
UniProt P27816: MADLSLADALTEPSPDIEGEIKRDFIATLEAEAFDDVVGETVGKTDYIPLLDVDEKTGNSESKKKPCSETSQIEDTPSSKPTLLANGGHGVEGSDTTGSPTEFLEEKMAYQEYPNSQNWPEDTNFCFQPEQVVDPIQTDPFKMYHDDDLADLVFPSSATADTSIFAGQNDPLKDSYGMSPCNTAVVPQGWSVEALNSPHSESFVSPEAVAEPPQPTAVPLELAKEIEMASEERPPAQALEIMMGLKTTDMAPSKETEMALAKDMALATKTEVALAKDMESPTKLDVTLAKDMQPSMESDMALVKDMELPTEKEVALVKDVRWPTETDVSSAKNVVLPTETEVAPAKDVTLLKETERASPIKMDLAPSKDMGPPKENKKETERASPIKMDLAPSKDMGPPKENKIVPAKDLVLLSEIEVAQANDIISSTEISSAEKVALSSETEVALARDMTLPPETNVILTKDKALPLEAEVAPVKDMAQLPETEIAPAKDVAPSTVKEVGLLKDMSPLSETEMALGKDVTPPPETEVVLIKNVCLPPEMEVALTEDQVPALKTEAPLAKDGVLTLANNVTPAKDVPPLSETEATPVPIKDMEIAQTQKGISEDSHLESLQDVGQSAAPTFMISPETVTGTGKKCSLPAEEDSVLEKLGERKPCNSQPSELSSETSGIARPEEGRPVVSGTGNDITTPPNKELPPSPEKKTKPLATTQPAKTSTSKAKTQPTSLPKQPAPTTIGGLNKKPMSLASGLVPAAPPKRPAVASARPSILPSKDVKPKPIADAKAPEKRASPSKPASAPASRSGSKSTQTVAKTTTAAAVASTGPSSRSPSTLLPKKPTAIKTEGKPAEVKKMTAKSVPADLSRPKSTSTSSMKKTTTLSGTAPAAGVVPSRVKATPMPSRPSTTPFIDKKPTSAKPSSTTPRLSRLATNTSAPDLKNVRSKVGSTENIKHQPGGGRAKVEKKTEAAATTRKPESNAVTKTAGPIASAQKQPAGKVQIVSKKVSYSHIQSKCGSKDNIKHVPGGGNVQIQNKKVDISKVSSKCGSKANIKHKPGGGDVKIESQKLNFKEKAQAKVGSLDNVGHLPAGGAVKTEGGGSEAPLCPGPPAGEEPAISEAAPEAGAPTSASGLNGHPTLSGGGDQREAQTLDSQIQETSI
UniProt P35637: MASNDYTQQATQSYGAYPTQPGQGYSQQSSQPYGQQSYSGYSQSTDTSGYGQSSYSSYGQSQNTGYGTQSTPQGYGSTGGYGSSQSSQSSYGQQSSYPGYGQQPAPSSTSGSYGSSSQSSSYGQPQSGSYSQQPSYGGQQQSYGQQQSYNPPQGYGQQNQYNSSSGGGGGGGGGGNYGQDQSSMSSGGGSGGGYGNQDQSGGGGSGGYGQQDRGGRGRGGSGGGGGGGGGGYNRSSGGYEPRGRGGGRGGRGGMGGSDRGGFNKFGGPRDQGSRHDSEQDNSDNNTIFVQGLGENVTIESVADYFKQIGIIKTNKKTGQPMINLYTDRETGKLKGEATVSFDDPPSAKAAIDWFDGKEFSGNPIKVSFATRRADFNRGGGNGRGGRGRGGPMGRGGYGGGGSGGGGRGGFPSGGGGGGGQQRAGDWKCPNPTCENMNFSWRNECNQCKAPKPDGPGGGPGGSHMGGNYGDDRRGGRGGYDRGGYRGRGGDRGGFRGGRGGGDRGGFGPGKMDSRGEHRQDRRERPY
UniProt P04792: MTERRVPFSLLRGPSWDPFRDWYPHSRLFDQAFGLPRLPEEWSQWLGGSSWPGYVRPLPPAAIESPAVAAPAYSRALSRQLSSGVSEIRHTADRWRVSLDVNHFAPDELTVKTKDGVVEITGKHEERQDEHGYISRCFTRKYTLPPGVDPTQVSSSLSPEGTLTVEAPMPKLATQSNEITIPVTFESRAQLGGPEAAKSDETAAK
UniProt P04264: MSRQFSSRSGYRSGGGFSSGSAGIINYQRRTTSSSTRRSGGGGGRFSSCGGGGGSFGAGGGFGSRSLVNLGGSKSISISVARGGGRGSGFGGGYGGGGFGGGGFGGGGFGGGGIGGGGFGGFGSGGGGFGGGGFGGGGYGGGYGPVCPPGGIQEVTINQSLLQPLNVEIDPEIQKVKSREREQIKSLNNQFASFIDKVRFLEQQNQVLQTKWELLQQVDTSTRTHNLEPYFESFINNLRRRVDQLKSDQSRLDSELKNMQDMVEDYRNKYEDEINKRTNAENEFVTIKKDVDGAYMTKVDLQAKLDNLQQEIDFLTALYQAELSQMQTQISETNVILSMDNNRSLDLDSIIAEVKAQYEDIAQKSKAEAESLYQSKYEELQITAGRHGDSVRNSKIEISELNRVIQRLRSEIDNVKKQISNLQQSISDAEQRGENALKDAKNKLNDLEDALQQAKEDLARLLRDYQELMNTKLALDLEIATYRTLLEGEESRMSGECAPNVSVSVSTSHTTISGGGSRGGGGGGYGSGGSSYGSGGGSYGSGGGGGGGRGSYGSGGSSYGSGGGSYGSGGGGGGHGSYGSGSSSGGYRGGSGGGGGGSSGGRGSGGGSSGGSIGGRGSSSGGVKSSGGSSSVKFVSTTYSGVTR
UniProt Q7Z5L9: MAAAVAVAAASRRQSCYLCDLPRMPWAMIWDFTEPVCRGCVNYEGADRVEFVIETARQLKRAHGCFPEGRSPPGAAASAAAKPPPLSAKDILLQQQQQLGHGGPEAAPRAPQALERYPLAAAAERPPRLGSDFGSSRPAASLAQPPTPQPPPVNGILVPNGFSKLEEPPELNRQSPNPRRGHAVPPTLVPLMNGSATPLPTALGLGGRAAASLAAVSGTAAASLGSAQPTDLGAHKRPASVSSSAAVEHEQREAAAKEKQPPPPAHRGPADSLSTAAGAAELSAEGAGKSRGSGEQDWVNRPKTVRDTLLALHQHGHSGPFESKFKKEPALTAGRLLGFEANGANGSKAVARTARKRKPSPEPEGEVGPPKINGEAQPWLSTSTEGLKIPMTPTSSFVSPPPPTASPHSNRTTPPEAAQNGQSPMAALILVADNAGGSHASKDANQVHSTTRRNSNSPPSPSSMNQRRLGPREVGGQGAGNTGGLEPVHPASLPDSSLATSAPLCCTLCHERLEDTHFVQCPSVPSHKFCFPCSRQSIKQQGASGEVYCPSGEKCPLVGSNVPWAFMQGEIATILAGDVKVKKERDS

T1: Helicobacter pylori adhesin HpaA (neuraminyllactose-binding hemagglutinin), recombinant, 6x His tagged (Helicobacter pylori (strain ATCC 26695)) (UniProt P55969)
T1 sequence: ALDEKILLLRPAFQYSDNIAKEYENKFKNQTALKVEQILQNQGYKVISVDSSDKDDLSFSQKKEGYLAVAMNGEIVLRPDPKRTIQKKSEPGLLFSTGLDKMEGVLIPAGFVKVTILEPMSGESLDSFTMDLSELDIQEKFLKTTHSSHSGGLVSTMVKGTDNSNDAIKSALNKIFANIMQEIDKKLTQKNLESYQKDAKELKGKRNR

B1: Peroxiredoxin-1 (protein, UniProt Q06830 1-199)
chain: MSSGNAKIGHPAPNFKATAVMPDGQFKDISLSDYKGKYVVFFFYPLDFTFVCPTEIIAFSDRAEEFKKLNCQVIGASVDSHFCHLAWVNTPKKQGGLGPMNIPLVSDPKRTIAQDYGVLKADEGISFRGLFIIDDKGILRQITVNDLPVGRSVDETLRLVQAFQFTDKHGEVCPAGWKPGSDTIKPDVQKSKEYFSKQK
B2: Transketolase (protein, UniProt P29401 1-623)
chain: MESYHKPDQQKLQALKDTANRLRISSIQATTAAGSGHPTSCCSAAEIMAVLFFHTMRYKSQDPRNPHNDRFVLSKGHAAPILYAVWAEAGFLAEAELLNLRKISSDLDGHPVPKQAFTDVATGSLGQGLGAACGMAYTGKYFDKASYRVYCLLGDGELSEGSVWEAMAFASIYKLDNLVAILDINRLGQSDPAPLQHQMDIYQKRCEAFGWHAIIVDGHSVEELCKAFGQAKHQPTAIIAKTFKGRGITGVEDKESWHGKPLPKNMAEQIIQEIYSQIQSKKKILATPPQEDAPSVDIANIRMPSLPSYKVGDKIATRKAYGQALAKLGHASDRIIALDGDTKNSTFSEIFKKEHPDRFIECYIAEQNMVSIAVGCATRNRTVPFCSTFAAFFTRAFDQIRMAAISESNINLCGSHCGVSIGEDGPSQMALEDLAMFRSVPTSTVFYPSDGVATEKAVELAANTKGICFIRTSRPENAIIYNNNEDFQVGQAKVVLKSKDDQVTVIGAGVTLHEALAAAELLKKEKINIRVLDPFTIKPLDRKLILDSARATKGRILTVEDHYYEGGIGEAVSSAVVGEPGITVTHLAVNRVPRSGKPAELLKMFGIDRDAIAQAVRGLITKA
B3: Splicing factor 1 (protein, UniProt Q15637 1-639)
chain: MATGANATPLDFPSKKRKRSRWNQDTMEQKTVIPGMPTVIPPGLTREQERAYIVQLQIEDLTRKLRTGDLGIPPNPEDRSPSPEPIYNSEGKRLNTREFRTRKKLEEERHNLITEMVALNPDFKPPADYKPPATRVSDKVMIPQDEYPEINFVGLLIGPRGNTLKNIEKECNAKIMIRGKGSVKEGKVGRKDGQMLPGEDEPLHALVTANTMENVKKAVEQIRNILKQGIETPEDQNDLRKMQLRELARLNGTLREDDNRILRPWQSSETRSITNTTVCTKCGGAGHIASDCKFQRPGDPQSAQDKARMDKEYLSLMAELGEAPVPASVGSTSGPATTPLASAPRPAAPANNPPPPSLMSTTQSRPPWMNSGPSESRPYHGMHGGGPGGPGGGPHSFPHPLPSLTGGHGGHPMQHNPNGPPPPWMQPPPPPMNQGPHPPGHHGPPPMDQYLGSTPVGSGVYRLHQGKGMMPPPPMGMMPPPPPPPSGQPPPPPSGPLPPWQQQQQQPPPPPPPSSSMASSTPLPWQQNTTTTTTSAGTGSIPPWQQQQAAAAASPGAPQMQGNPTMVPLPPGVQPPLPPGAPPPPPPPPPGSAGMMYAPPPPPPPPMDPSNFVTMMGMGVAGMPPFGMPPAPPPPPPQN
B4: UPF0568 protein C14orf166 (protein, UniProt Q9Y224 1-244)
chain: MFRRKLTALDYHNPAGFNCKDETEFRNFIVWLEDQKIRHYKIEDRGNLRNIHSSDWPKFFEKYLRDVNCPFKIQDRQEAIDWLLGLAVRLEYGDNAEKYKDLVPDNSKTADNATKNAEPLINLDVNNPDFKAGVMALANLLQIQRHDDYLVMLKAIRILVQERLTQDAVAKANQTKEGLPVALDKHILGFDTGDAVLNEAAQILRLLHIEELRELQTKINEAIVAVQAIIADPKTDHRLGKVGR
B5: SNW domain-containing protein 1 (protein, UniProt Q13573 1-536)
chain: MALTSFLPAPTQLSQDQLEAEEKARSQRSRQTSLVSSRREPPPYGYRKGWIPRLLEDFGDGGAFPEIHVAQYPLDMGRKKKMSNALAIQVDSEGKIKYDAIARQGQSKDKVIYSKYTDLVPKEVMNADDPDLQRPDEEAIKEITEKTRVALEKSVSQKVAAAMPVRAADKLAPAQYIRYTPSQQGVAFNSGAKQRVIRMVEMQKDPMEPPRFKINKKIPRGPPSPPAPVMHSPSRKMTVKEQQEWKIPPCISNWKNAKGYTIPLDKRLAADGRGLQTVHINENFAKLAEALYIADRKAREAVEMRAQVERKMAQKEKEKHEEKLREMAQKARERRAGIKTHVEKEDGEARERDEIRHDRRKERQHDRNLSRAAPDKRSKLQRNENRDISEVIALGVPNPRTSNEVQYDQRLFNQSKGMDSGFAGGEDEIYNVYDQAWRGGKDMAQSIYRPSKNLDKDMYGDDLEARIKTNRFVPDKEFSGSDRRQRGREGPVQFEEDPFGLDKFLEEAKQHGGSKRPSDSSRPKEHEHEGKKRRKE
B6: Protein S100-A11 (protein, UniProt P31949 1-105)
chain: MAKISSPTETERCIESLIAVFQKYAGKDGYNYTLSKTEFLSFMNTELAAFTKNQKDPGVLDRMMKKLDTNSDGQLDFSEFLNLIGGLAMACHDSFLKAVPSQKRT

Molecular target: T1, Helicobacter pylori adhesin HpaA (neuraminyllactose-binding hemagglutinin), recombinant, 6x His tagged (Helicobacter pylori (strain ATCC 26695))
Assay: affinity purification with mass spectrometry; only the target purified

Row | Molecule | binding
1 | Elongation factor 1-alpha 1 (from UniProt P68104 1-462) | binds
2 | Microtubule-associated protein 4 (from UniProt P27816 1-1152) | binds
3 | RNA-binding protein FUS (from UniProt P35637 1-526) | binds
4 | Heat shock protein beta-1 (from UniProt P04792 1-205) | binds
5 | Keratin, type II cytoskeletal 1 (from UniProt P04264 1-644) | binds
6 | Interferon regulatory factor 2-binding protein 2 (from UniProt Q7Z5L9 1-587) | binds
7 | B1 | binds
8 | B2 | binds
9 | B3 | binds
10 | B4 | binds
11 | B5 | binds
12 | B6 | binds
